According to PMC6359543, “Efficacy of Azatyrosine-Phenylbutyric Hydroxamides, a Histone Deacetylase Inhibitor, on Chemotherapy-Induced Gastrointestinal Mucositis” (International Journal of Molecular Sciences, 2019):

Target: Pan HDAC enzyme
Test: HDAC fluorometric activity assay, pan HDAC
Type: biochemical
Method: Pan HDAC enzyme (all the known class I HDACs-HDAC1, HDAC2, HDAC3, HDAC8 and class II HDACs 4-7, 9 and 10), HDAC subtype 1, 3 and 4 activity were determined by using the HDAC fluorometric cellular activity assay (Enzo Life Sciences, Farmingdale, NY, USA) according to the manufacturer’s protocol. […] Percent activity for each of the test compounds is calculated as follows:
Activity = {(Sc − B)/(S° − B)} × 100. Wherein, S c represents the signal measured in the presence of AzP or SAHA, S° denotes signal measured in the absence of AzP or SAHA, B is measured in blank wells containing the medium alone. […] IC50 was then calculated and represented as mean ± SD.

O=C(CCCCCCC(=O)Nc1ccccc1)NO [SAHA, suberoylanilide hydroxamic acid, reference compound]
IC50: 84.5 ± 13.7 nM
